Results reported in patent US8030341B2 (priority 2005, dated 2011).
Strings that start with PEPTIDE1 are HELM notation: dots part the residues, brackets hold end groups and non-standard residues.

Assay: general procedure: solution-phase peptide synthesis; PyBop/DIPEA
Conditions: coupling step

Row | Substance | step yield (HCl) [%] | step yield (HCl salt) [%]
1 | PEPTIDE1{[N,N-diallyl-Tyr].P.F.F.[am]}$$$$V2.0 | 73.8 | 
2 | [N-Boc-N-allyl-Tyr]EM-2 |  | 80
3 | PEPTIDE1{[N-allyl-Dmt].P.F.F.[am]}$$$$V2.0 |  | 70
